Laboratory results published in article PMC8767159, “Multiparameter Optimization of Trypanocidal Cruzain Inhibitors With In Vivo Activity and Favorable Pharmacokinetics” (Frontiers in Pharmacology, 2022).

Test system: HFF-1 fibroblasts
Assay: Cytotoxicity MTS assay in HFF-1 fibroblasts
Type: cell-based, human
Details: selectivity index
Protocol: The synthesized compounds were evaluated for their cytotoxicity against HFF-1 cells using the MTS assay (Promega, Madison, WI) ([Barltrop et al., 1991]) as previously described ([Ferreira et al., 2019]). HFF-1 fibroblasts were plated at 2 × 10^3/well in 96-well culture plates in RPMI 1640 without phenol red enriched with 10% FCS and incubated overnight at 37°C and 5% CO2. Next, 7 concentrations (0.1–100 µM) of the compounds were added in 3-fold serial dilutions, each concentration in triplicate, and the plates were incubated for 72 h at 37°C and 5% CO2. Next, 20 µl of MTS was added to each well, and the plates were incubated for an additional 4 h at 37°C and 5% CO2. The absorbance was measured at 490 nm using a spectrophotometer, and the data were transferred to SigmaPlot 10.0 (Systat Software Inc., Erkrath, Germany) to determine the IC50 values. Doxorubicin (Sigma–Aldrich) was used as a positive control, and untreated wells (100% growth) were used as negative controls in all plates. All compounds were tested in two independent assays.

Row | SMILES | SI (IC50 HFF-1/IC50 T. cruzi)
1 | O=C(COc1ccccc1[N+](=O)[O-])NCCc1nc2ccccc2[nH]1 [Compound 32] | >12
2 | C=CCCn1c(CCNC(=O)COc2ccccc2Cl)nc2ccccc21 [Compound 38] | >9
3 | O=C(COc1ccccc1Br)NCCc1nc2ccccc2[nH]1 [Compound 18] | > 61
4 | Cc1ccccc1OCC(=O)NCCc1nc2ccccc2o1 [Compound 37] | > 34
5 | CC(=O)Nc1cccc(OCC(=O)NCCc2nc3ccccc3[nH]2)c1 [Compound 3] | >20
6 | NC(=O)Cn1c(CCNC(=O)COc2ccccc2)nc2ccccc21 [Compound 28] | >15
7 | O=C(COc1ccc2ccccc2c1Br)NCCc1nc2ccccc2[nH]1 [Compound 34] | >2
8 | O=C(COc1ccc(NC(=O)CCCO)cc1)NCCc1nc2ccccc2[nH]1 [Compound 5] | >2
9 | O=C(COc1ccccc1)NCCc1nc2ccccc2n1Cc1ccccc1 [Compound 26] | >13
10 | CC(=O)Nc1ccc(OCC(=O)NCCc2nc3ccccc3[nH]2)cc1 [Compound 2] | >8
11 | O=C(COc1ccccc1)NCCc1nc2ccccc2[nH]1 [Compound 1] | > 26
12 | O=C(Cn1ccnc1[N+](=O)[O-])NCc1ccccc1 [BZ, benznidazole, reference compound] | > 33
13 | O=C(COc1ccccc1)NCCc1nc2ccccc2n1CCCOc1ccccc1 [Compound 24] | >21
14 | O=C(COc1cccc([N+](=O)[O-])c1)NCCc1nc2ccccc2[nH]1 [Compound 8] | > 29
15 | O=C(COc1ccc2ccccc2c1)NCCc1nc2ccccc2[nH]1 [Compound 35] | > 2
16 | O=C(COc1ccccc1)NCCc1nc2ccccc2n1CCOc1ccccc1 [Compound 20] | >14
17 | Cc1ccccc1OCC(=O)NCCc1nc2ccccc2[nH]1 [Compound 17] | > 35
18 | C=CCCn1c(CCNC(=O)COc2ccccc2)nc2ccccc21 [Compound 27] | >14
19 | O=C(COc1ccc(Br)cc1)NCCc1nc2ccccc2[nH]1 [Compound 33] | >15
20 | O=C(COc1ccc2cc(O)ccc2c1)NCCc1nc2ccccc2[nH]1 [Compound 10] | >7
